The whole screen tested about 360,000 compounds, of which about 7,500 (2.1%) were called active. Inconclusive results, whose numbers are uncertain, are shown with a selection of clear calls. Calls follow the shape of the dose curve; as a rule, active = well fitted inhibition curve with a large enough effect; inconclusive = small, poorly fitted or top-dose-only effect, or effect the other way; inactive = flat fitted curve, though single readings scatter. Potencies of inconclusive entries are doubtful fits and often do not repeat.
Assay: Nrf2 qHTS screen for inhibitors; also: nearly all actives have a fitted effect of over 60% in size
Conditions: A549 ARE-Fluc reporter, luciferase luminescence, 18-24 h; activity change, negative = inhibition: at 46 µM (top of the series)
From the text: NIH Molecular Libraries Probe Production Network [MLPCN]
NIH Chemical Genomics Center [NCGC]
Assay Provider: Shyam Biswal, Johns Hopkins University
Nrf2 is a transcription factor that maintains cellular redox homoestasis and protects cells from xenobiotics. Nrf2 binds to the antioxidant response element (ARE) to induce gene expression of a broad spectrum of genes that encode for antioxidants. […] Finding a small molecule that act as an inhibitor of Nrf2 function would represent a novel therapeutic target that could lead to improvement in survival of patients undergoing chemo- and/or radio- therapy.
This is the Nrf2 activity measured in the luminescent read.
1. Shibata, T., et al., Genetic Alteration of Keap1 Confers Constitutive Nrf2 Activation and Resistance to Chemotherapy in Gallbladder Cancer. Gastroenterology, 2008.
2. Sjoblom, T., et al., The consensus coding sequences of human breast and colorectal cancers. Science, 2006. 314(5797): p. 268-74.
NCGC Assay Protocol Summary:
A concentration-response assay was performed with A549 ARE_Fluc cells which are suspended in 5% FBS OPTI-MEM. Five uL were dispensed into 1536-well white TC-treated plate using the Kalypsys dispenser to achieve a density of 5000 cells/well in all columns except column 1. The plate is incubated at 37deg C at 5% CO2 for 2 hours before 23 nL of compounds are added with the Kalypsys pin tool equipped with a 1,536-pin array containing 10-nL slotted pins (FP1S10, 0.457-mm diameter, 50.8 mm long; V&P Scientific). The control compounds Budesonide and Staurosporine are both added at a concentration of 2mM and Budesonide is also added as a 1:10 titration, starting at 200uM, to achieve dose-response. After an 18-24 hour incubation at 37deg C at 5% CO2, 5ul of medium is added to column 1. Afterwards 1ul of 5x of CellTiter-Fluor (Promega) is added to every well. The plate is then incubated at 37deg C at 5% CO2 for 30 minutes before they are read on the ViewLux (Perkin Elmer) for a fluorescent read Ex=405(10)/Em=525(10) for a 3 second exposure, 2x binning, and high gain. Then 3 uL of 3x BugLite is dispensed into all wells and the plate is incubated at ambient room temperature for 15 minutes. Afterwards another ViewLux read is performed using the clear filter to get a luminescent read with the settings of 40 second exposure, 2x binning, and high gain. Cytotoxicity is assessed through the first fluorescent read and then biochemical activity against Nrf2 is measured in the luminescent read.
% is scaled to controls: 0 for no effect and ±100 for the full control effect; potency is read from the fitted curve at half-maximal effect.

Compound | activity change, negative = inhibition | Potency
CCN(CC)c1ccc(C=C(c2nnnn2-c2ccccc2)c2nnnn2-c2ccccc2)cc1 | inactive: -14.7% | –
Cc1ccc(C2=NC(C(F)(F)F)(C(F)(F)F)c3c(n(-c4ccc(F)cc4)c(=O)[nH]c3=O)N2)cc1 | – | active: 20.6 µM
CCN(CC)c1ccc(C2C3CCCCC3(O)CCN2C(=O)c2cccs2)cc1 (stereo not given) | – | inconclusive: 29.1 µM [falling, single point]
CN(CCOc1ccc(Cl)cc1)C(=O)c1cc(S(=O)(=O)N2CCOCC2)ccc1N1CCCC1 | inactive: -24% | –
Cc1[nH]c(=O)c(C#N)c(C)c1Br | – | inconclusive: 0.259 µM [falling, full curve, poor fit]
CCOC(=O)N1CCN(c2nc(-c3cccc(OC)c3)cc(C(F)(F)F)n2)CC1 | – | inconclusive: 29.1 µM [falling, single point]
O=C1C(=O)N(Cc2ccccc2)C(=O)N1CCOc1ccccc1 | – | inconclusive: 29.1 µM [activator, single point]
COC(=O)c1c(-c2ccc(C)cc2)csc1NC(=O)C1CC=CCC1C(=O)O (stereo not given) | inactive: 18.9% | –
Cc1c(Cl)cccc1NC(=O)c1nc(C)n(-c2cc(OC(C)C)c(Cl)cc2Cl)n1 | – | inconclusive: 16.4 µM [falling, partial curve, poor fit]
CC(=O)c1cccc(NC(=O)c2cnn(-c3ccccc3)c2C)c1 | – | inconclusive: 10.3 µM [activator, partial curve, poor fit]
Cc1ccc2nc(Cl)c3cc(C(=O)N(C)C4CCCCC4)sc3c2c1 | inactive: 5.15% | –
CCCCNC(=O)COC(=O)c1ccc(F)cc1Cl | – | inconclusive: 8.2 µM [falling, partial curve, poor fit]
CC1CN(c2ncnc3c2cnn3-c2ccc(Cl)cc2)CC(C)O1 (stereo not given) | – | inconclusive: 6.51 µM [activator, partial curve]
CCOc1ccc(CCNC(=O)C2CCN(C(=O)N3CC(CC)Oc4ccc(C)cc43)CC2)cc1 (stereo not given) | – | inconclusive: 5.8 µM [falling, partial curve, poor fit]
CC(=O)N1CCN(c2ccc(NC(=O)c3ccco3)cc2Cl)CC1 | inactive: 8.63% | –
COC(=O)C(C)(C)ONC(=O)Nc1ccc(C)cc1 | – | inconclusive: 18.4 µM [activator, single point]
CC(NC(=O)c1ccc(Cl)c(S(=O)(=O)N2CCCCCC2)c1)c1cccnc1 (stereo not given) | – | inconclusive: 23.1 µM [falling, single point]
CN1CCN(C(=O)CCN2C(=O)/C(=C/c3ccccc3Cl)SC2=S)CC1 | – | inconclusive: 20.6 µM [activator, partial curve]
CN(C)c1ccc(C(CNS(=O)(=O)c2ccc(F)c(F)c2)c2c[nH]c3ccccc23)cc1 (stereo not given) | – | inconclusive: 29.1 µM [falling, single point]
COc1ccc(-n2ncc3c(N4CCN(Cc5ccccc5)CC4)ncnc32)cc1 | – | inconclusive: 23.1 µM [falling, single point]

Some of these compounds in order of molecular weight, rising.
Compound | activity change, negative = inhibition | Potency
CCCCNC(=O)COC(=O)c1ccc(F)cc1Cl | – | inconclusive: 8.2 µM [falling, partial curve, poor fit]
CC(=O)c1cccc(NC(=O)c2cnn(-c3ccccc3)c2C)c1 | – | inconclusive: 10.3 µM [activator, partial curve, poor fit]
O=C1C(=O)N(Cc2ccccc2)C(=O)N1CCOc1ccccc1 | – | inconclusive: 29.1 µM [activator, single point]
CC1CN(c2ncnc3c2cnn3-c2ccc(Cl)cc2)CC(C)O1 (stereo not given) | – | inconclusive: 6.51 µM [activator, partial curve]
Cc1ccc2nc(Cl)c3cc(C(=O)N(C)C4CCCCC4)sc3c2c1 | inactive: 5.15% | –
CCOC(=O)N1CCN(c2nc(-c3cccc(OC)c3)cc(C(F)(F)F)n2)CC1 | – | inconclusive: 29.1 µM [falling, single point]
Cc1ccc(C2=NC(C(F)(F)F)(C(F)(F)F)c3c(n(-c4ccc(F)cc4)c(=O)[nH]c3=O)N2)cc1 | – | active: 20.6 µM

(more compounds)

Compound | activity change, negative = inhibition | Potency
Cc1ccc(C(=O)Nc2c(N)nc(SCC(=O)Nc3cc(C)on3)[nH]c2=O)cc1 | inactive: -10.9% | –
Cc1c(C(=O)NCCc2ccccc2)cccc1-n1cnc2cccnc21 | – | inconclusive: 9.2 µM [activator, partial curve]
Cc1cc(Nc2ccccc2)n(-c2nc3ccccc3[nH]2)n1 | – | active: 16.4 µM
O=C(COc1ccc2ccccc2c1)N1CCNCC1 | – | inconclusive: 32.6 µM [activator, partial curve, poor fit]
O=C(c1ccc(Cl)c([N+](=O)[O-])c1)N1CCN(c2ccccn2)CC1 | inactive: -6.94% | –
O=[N+]([O-])c1cccc(-c2cc(-c3cc(Br)ccc3O)[nH]n2)c1 | – | inconclusive: 29.1 µM [falling, single point]
CCC1CCc2sc(C(=O)OCC(=O)N(CCOC)c3c(N)n(Cc4ccccc4)c(=O)[nH]c3=O)cc2C1 (stereo not given) | – | inconclusive: 23.1 µM [falling, single point]
Cc1ccc(C)c(N2CCN(C(=O)c3ccc(CS(=O)(=O)c4ccccc4C)o3)CC2)c1 | – | inconclusive: 29.1 µM [falling, single point]
Cc1cc(C)cc(NC(=O)CN2C(=O)CSc3ccc(S(=O)(=O)N4CCCC4)cc32)c1 | – | inconclusive: 25.9 µM [falling, partial curve, poor fit]
C=C(C)COc1ccc(-c2n[nH]c(C)c2Oc2ccccc2OC)c(O)c1 | – | inconclusive: 5.8 µM [falling, partial curve, poor fit]
Cc1cccc(Nc2nnc(SCC(=O)c3c(N)n(C4CC4)c(=O)[nH]c3=O)s2)c1 | – | inconclusive: 20.6 µM [falling, partial curve]
Cc1cccc(C)c1OCc1cc(C(=O)N2CCN(c3ccccn3)CC2)no1 | – | inconclusive: 0.231 µM [activator, full curve, poor fit]
CCOC(=O)c1c(NC(=O)CSc2cn(CCNC(=O)c3ccccc3OC)c3ccccc23)sc2c1CCCC2 | – | inconclusive: 2.91 µM [falling, full curve]
O=C(NCC1CCN(Cc2cccc(F)c2)CC1)c1cc2ccc3cccnc3c2[nH]1 | – | inconclusive: 13 µM [activator, partial curve, poor fit]
Cc1nn(CC(=O)N2CCN(c3ccccc3)CC2)c(=O)c2cc3cc(F)ccc3n12 | inactive: 8.39% | –
CC1=C(c2ccc(C(C)C)cc2)S(=O)(=O)N=C1N1CCC(C(=O)NCc2ccco2)CC1 | – | inconclusive: 18.4 µM [falling, single point]
c1ccc(-c2c[n+]3c(n2-c2ccccc2)CCC3)cc1 | – | inconclusive: 4.61 µM [falling, partial curve]
O=C(NNC(=S)Nc1ccc(Cl)cc1Cl)C1CC1 | inactive: 10.6% | –
Cc1ccc(OCC(=O)N/N=C2/SCC(=O)N2Cc2ccco2)cc1 | – | inconclusive: 2.06 µM [activator, partial curve, poor fit]
C[C@@]12C(=O)N(c3cccc(F)c3)C(=O)N1[C@@H]1c3ccccc3OC[C@@H]1[C@H]2c1ccccc1 | – | inconclusive: 1.84 µM [falling, partial curve, poor fit]

Source: PubChem BioAssay AID504444 (National Center for Advancing Translational Sciences (NCATS), 2011)
